Data as given in the supplement of paper PMC10849652.
Some of the results follow.

Amino acid sequences for entries named in this document (tags omitted). A change or cut given only in a name is not applied to a line headed by its entry.
UniProt Q8IUZ5: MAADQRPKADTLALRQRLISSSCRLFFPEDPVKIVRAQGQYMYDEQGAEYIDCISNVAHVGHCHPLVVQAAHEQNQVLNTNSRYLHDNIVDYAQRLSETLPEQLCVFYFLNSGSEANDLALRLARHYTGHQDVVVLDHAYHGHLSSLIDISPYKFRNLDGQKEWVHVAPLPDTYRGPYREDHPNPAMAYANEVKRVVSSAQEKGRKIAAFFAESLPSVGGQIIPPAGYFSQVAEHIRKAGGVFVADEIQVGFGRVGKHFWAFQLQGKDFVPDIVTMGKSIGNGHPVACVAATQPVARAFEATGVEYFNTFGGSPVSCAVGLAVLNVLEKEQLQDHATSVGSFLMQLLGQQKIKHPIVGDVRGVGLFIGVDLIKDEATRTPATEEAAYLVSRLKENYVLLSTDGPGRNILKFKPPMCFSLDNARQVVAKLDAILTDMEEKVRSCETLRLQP
UniProt P53609, whole entry, looked up: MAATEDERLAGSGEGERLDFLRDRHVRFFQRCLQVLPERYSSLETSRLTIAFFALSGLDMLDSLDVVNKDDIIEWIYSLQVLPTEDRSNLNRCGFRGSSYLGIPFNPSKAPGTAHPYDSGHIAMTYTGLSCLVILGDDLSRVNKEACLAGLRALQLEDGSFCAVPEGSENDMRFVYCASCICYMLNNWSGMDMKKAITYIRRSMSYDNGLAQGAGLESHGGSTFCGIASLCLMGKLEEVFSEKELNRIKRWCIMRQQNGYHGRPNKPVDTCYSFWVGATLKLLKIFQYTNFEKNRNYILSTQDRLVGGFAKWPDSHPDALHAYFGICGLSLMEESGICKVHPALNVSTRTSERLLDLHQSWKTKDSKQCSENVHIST
UniProt Q9UG56: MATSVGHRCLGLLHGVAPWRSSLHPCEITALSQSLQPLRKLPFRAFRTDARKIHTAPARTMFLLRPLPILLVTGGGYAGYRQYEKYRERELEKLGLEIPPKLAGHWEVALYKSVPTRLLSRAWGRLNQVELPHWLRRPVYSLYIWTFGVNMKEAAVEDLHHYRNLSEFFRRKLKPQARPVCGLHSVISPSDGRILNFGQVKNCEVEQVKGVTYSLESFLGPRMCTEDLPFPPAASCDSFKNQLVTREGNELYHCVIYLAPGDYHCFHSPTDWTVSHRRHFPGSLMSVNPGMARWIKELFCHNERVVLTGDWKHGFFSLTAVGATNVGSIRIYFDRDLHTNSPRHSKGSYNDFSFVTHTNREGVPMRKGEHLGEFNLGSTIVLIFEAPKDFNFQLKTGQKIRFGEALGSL
UniProt P14618, whole entry, looked up: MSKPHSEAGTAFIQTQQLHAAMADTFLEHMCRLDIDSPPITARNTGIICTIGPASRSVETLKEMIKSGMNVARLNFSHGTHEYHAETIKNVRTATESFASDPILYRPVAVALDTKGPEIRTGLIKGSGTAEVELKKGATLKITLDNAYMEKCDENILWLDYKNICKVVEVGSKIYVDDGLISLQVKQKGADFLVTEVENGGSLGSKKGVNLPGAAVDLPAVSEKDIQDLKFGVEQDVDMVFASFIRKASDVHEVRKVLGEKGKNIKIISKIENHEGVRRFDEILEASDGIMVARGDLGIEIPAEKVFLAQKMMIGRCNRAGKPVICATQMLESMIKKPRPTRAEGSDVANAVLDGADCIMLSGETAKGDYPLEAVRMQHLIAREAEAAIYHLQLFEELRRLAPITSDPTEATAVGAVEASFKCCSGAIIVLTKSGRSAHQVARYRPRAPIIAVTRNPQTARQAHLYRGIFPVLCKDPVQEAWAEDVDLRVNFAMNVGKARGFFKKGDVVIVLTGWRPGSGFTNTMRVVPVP
UniProt P42336, whole entry, looked up: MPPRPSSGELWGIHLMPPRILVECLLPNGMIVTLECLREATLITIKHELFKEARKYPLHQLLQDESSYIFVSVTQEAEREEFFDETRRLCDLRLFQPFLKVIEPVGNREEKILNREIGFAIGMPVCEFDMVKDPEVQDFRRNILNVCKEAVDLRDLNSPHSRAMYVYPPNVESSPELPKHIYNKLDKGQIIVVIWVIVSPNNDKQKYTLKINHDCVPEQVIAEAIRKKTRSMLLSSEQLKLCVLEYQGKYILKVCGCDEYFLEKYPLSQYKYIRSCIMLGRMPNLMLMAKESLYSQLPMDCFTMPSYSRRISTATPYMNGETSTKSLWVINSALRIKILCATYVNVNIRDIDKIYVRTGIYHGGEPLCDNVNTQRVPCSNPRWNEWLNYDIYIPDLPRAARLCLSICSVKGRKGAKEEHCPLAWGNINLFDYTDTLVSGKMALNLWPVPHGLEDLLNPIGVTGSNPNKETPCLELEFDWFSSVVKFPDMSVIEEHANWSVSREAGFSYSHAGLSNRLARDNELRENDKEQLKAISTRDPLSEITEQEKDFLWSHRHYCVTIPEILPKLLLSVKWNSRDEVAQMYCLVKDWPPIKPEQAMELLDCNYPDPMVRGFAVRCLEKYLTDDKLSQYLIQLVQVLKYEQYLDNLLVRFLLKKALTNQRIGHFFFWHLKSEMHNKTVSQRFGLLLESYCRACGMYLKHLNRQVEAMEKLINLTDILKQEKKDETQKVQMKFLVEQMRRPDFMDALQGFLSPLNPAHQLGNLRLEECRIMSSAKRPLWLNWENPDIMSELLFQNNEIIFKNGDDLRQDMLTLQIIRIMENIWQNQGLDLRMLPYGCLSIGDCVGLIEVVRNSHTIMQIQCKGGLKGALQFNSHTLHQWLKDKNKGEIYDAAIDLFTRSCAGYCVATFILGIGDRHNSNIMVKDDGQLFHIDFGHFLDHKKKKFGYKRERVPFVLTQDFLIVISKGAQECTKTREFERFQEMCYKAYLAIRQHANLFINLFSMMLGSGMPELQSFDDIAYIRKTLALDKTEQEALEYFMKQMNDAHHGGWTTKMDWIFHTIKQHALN
UniProt O43164: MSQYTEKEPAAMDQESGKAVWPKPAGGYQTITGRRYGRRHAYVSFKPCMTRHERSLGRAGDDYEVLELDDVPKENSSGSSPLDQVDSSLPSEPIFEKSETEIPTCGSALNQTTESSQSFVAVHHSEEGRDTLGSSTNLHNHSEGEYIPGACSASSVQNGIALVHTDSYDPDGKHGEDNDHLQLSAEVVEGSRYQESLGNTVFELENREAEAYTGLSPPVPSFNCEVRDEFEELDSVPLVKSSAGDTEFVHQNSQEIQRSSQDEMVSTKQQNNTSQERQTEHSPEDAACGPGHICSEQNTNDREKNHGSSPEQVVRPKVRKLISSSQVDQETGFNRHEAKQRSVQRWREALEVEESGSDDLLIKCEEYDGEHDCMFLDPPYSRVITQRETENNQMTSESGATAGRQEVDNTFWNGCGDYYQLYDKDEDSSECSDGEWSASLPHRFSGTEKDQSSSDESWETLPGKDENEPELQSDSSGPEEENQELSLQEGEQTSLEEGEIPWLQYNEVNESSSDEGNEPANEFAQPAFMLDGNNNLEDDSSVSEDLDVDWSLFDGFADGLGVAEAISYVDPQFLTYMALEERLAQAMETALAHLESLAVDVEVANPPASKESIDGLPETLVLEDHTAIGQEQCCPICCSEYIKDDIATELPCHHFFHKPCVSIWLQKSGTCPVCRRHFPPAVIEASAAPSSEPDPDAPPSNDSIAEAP
UniProt Q00722, whole entry, looked up: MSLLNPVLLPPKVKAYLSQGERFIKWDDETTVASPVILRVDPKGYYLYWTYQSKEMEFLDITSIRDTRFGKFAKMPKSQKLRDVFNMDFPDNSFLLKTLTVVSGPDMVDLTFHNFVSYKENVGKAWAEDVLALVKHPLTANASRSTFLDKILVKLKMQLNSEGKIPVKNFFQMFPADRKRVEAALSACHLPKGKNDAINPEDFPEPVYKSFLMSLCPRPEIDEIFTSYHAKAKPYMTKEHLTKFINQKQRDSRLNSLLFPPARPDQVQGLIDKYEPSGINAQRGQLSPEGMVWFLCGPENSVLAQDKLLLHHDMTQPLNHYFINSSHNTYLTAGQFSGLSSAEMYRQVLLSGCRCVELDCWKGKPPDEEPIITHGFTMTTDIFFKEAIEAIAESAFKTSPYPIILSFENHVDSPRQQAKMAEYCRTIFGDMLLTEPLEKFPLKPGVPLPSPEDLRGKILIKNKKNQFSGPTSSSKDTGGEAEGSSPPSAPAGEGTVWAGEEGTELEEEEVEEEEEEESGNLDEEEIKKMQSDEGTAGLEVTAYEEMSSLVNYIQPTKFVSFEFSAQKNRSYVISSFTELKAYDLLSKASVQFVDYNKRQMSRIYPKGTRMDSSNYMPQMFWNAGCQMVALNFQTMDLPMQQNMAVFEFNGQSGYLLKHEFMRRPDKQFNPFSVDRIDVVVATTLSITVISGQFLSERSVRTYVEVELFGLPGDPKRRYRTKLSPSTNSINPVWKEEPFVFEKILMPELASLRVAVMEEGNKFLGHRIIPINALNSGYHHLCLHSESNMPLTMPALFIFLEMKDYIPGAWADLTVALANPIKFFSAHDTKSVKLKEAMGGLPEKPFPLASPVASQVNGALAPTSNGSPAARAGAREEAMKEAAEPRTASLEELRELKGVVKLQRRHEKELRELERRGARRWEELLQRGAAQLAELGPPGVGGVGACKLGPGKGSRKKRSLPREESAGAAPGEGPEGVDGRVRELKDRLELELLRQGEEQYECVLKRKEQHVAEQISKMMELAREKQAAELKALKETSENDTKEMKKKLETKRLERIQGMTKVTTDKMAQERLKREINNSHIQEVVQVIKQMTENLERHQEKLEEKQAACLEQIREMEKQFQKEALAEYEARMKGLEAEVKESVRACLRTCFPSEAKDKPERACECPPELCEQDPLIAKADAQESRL
UniProt Q86UU1: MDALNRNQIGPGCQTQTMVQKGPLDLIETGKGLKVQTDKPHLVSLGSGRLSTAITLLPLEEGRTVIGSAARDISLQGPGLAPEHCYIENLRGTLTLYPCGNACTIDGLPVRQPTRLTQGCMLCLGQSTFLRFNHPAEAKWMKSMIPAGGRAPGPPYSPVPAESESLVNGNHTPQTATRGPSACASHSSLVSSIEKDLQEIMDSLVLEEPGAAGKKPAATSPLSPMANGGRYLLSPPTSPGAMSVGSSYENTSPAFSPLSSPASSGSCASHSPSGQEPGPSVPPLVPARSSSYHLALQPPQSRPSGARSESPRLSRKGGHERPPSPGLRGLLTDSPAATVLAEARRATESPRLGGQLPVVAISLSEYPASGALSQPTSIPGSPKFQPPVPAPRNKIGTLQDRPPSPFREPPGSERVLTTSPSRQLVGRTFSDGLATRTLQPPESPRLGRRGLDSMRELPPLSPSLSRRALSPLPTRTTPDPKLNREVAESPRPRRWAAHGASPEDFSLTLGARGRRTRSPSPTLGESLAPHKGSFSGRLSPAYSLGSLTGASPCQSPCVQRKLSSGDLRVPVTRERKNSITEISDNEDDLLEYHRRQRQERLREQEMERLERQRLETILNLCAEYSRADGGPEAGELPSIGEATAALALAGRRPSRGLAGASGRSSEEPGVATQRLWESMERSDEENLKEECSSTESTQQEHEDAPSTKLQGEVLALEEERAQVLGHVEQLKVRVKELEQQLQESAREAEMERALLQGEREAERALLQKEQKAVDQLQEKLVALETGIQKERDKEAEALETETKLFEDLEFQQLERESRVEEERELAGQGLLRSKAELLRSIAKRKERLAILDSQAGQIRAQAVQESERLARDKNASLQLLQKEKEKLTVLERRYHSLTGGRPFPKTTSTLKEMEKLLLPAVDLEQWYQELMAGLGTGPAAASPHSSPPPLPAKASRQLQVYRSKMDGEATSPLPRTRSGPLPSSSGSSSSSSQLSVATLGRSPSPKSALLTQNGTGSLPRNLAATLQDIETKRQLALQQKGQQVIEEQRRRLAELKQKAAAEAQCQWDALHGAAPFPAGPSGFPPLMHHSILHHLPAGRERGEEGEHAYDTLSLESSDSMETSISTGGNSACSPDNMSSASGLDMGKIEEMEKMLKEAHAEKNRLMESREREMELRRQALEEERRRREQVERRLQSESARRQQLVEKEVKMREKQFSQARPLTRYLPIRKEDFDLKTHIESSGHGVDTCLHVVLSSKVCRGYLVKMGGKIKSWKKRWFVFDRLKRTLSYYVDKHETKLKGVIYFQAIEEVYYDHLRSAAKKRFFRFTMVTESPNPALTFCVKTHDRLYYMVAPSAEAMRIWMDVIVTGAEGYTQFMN
UniProt P15735: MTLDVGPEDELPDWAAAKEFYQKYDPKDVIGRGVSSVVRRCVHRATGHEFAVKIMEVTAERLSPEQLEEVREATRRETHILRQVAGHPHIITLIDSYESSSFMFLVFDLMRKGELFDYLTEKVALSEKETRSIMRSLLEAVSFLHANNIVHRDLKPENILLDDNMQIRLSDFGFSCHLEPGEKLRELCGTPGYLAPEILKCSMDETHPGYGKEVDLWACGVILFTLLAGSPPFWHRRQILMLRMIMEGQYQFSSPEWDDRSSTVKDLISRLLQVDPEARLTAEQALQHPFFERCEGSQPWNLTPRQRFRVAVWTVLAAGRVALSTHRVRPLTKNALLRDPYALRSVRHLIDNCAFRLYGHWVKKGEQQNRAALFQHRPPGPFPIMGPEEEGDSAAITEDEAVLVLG

How the values were obtained:
Experiment in all cases: log2 fold change, soluble protein after heating vs DMSO (PISA); higher = thermal stabilisation; K562 lysate, 10 uM; active = over 0.2 and 3.5 SD of the protein, either way, in both replicates (recomputed)
vemurafenib = compound: CCCS(=O)(=O)Nc1ccc(F)c(C(=O)c2c[nH]c3ncc(-c4ccc(Cl)cc4)cc23)c1F [vemurafenib]
Procedure, shortened: (§1)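 The values are log-two fold changes in thermal stability compared with solvent controls and come from duplicates. They were obtained by TMTpro 16plex LC-MS/MS, with channel sums equalised, on the supernatant after 21,000xg for 90 min. That supernatant came from crude K562 extract at 1 mg/mL protein treated with 10 μM compound for 30 min, heated for 3 min across 48°C-58°C, pooled and brought to 0.5% NP-40 at 4°C.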

[1] = compound: CCCS(=O)(=O)Nc1ccc(F)c(C(=O)c2c[nH]c3ncc(Cl)cc23)c1F
Procedure, shortened: as §1

barasertib = compound: CCN(CCCOc1ccc2c(Nc3cc(CC(=O)Nc4cccc(F)c4)[nH]n3)ncnc2c1)CCOP(=O)(O)O [barasertib]
Procedure, shortened: as §1

[2] = compound: CC[C@@H]1C(=O)N(C)c2cnc(Nc3ccc(C(=O)NC4CCN(C)CC4)cc3OC)nc2N1C1CCCC1
Procedure, shortened: as §1

volasertib = compound: CC[C@@H]1C(=O)N(C)c2cnc(Nc3ccc(C(=O)N[C@H]4CC[C@H](N5CCN(CC6CC6)CC5)CC4)cc3OC)nc2N1C(C)C [volasertib]
Procedure, shortened: as §1

[3] = compound: CCn1c(C(=O)N(C2CC2)C2CC2)cc2c3c(ncn3C)c(Nc3cc(C)n(C)n3)nc21
Procedure, shortened: as §1

[4] = compound: CCn1cc(-c2ccnc3[nH]c(-c4cccc(CN(C)C)c4)cc23)c(-c2ccc(NC(=O)N(C)C)cc2)n1
Procedure, shortened: as §1

[5] = compound: CN1CCC(CNc2ccc3ncc(-c4cccc(OC(F)(F)F)c4)n3n2)CC1
Procedure, shortened: as §1

saracatinib = compound: CN1CCN(CCOc2cc(OC3CCOCC3)c3c(Nc4c(Cl)ccc5c4OCO5)ncnc3c2)CC1 [saracatinib]
Procedure, shortened: as §1

sotrastaurin = compound: CN1CCN(c2nc(C3=C(c4c[nH]c5ccccc45)C(=O)NC3=O)c3ccccc3n2)CC1 [sotrastaurin]
Procedure, shortened: as §1

Row | Target | log2 fold change (vemurafenib) | log2 fold change [1] | log2 fold change (barasertib) | log2 fold change [2] | log2 fold change (volasertib) | log2 fold change [3] | log2 fold change [4] | log2 fold change [5] | log2 fold change (saracatinib) | log2 fold change (sotrastaurin)
1 | PGM3 isoform 4 (UniProt O95394) | inactive: -0.044 | inactive: 0.011 | inactive: -0.009 | inactive: -0.083 | inactive: -0.039 | inactive: 0.01 | inactive: 0.018 | inactive: -0.006 | inactive: -0.012 | inactive: 0.013
2 | PIR (UniProt O00625) | inactive: -0.023 | inactive: 0.098 | inactive: -0.005 | inactive: 0.025 | inactive: 0.019 | inactive: -0.055 | inactive: 0.205 | inactive: -0.024 | inactive: -0.006 | inactive: -0.028
3 | PGPEP1 (UniProt Q9NXJ5) | inactive: 0.021 | inactive: 0.022 | inactive: -0.036 | inactive: -0.091 | inactive: -0.027 | inactive: 0.036 | inactive: -0.096 | inactive: 0.03 | inactive: 0 | inactive: -0.056
4 | PHYKPL (UniProt Q8IUZ5) | inactive: 0.019 | inactive: 0.03 | inactive: 0.033 | inactive: -0.155 | inactive: 0.018 | inactive: 0.138 | inactive: -0.015 | inactive: 0.033 | inactive: -0.009 | inactive: -0.053
5 | PHKB isoform 3 (UniProt Q93100) | inactive: -0.043 | inactive: -0.007 | inactive: 0.04 | inactive: 0.022 | inactive: -0.034 | inactive: 0.009 | inactive: -0.146 | inactive: 0.138 | inactive: 0.019 | inactive: -0.014
6 | PIGA (UniProt P37287) | inactive: 0.073 | inactive: 0 | inactive: 0.011 | inactive: 0.084 | inactive: 0.109 | inactive: -0.081 | inactive: 0.113 | inactive: 0.02 | inactive: 0.04 | inactive: 0.007
7 | PIP4P1 isoform 2 (UniProt Q86T03) | inactive: -0.028 | inactive: -0.027 | inactive: 0.077 | inactive: 0.079 | inactive: -0.023 | inactive: -0.053 | inactive: -0.062 | inactive: 0.06 | inactive: 0.056 | inactive: -0.007
8 | PLEKHF2 (UniProt Q9H8W4) | inactive: -0.019 | inactive: 0.04 | inactive: -0.019 | inactive: 0.026 | inactive: -0.007 | inactive: -0.006 | inactive: 0.149 | inactive: -0.034 | inactive: -0.126 | inactive: -0.012
9 | PITRM1 isoform 2 (UniProt Q5JRX3) | inactive: -0.026 | inactive: 0.001 | inactive: -0.01 | inactive: -0.018 | inactive: 0.127 | inactive: -0.008 | inactive: 0.07 | inactive: -0.048 | inactive: -0.021 | inactive: 0.007
10 | PGGT1B (UniProt P53609) | inactive: -0.159 | inactive: 0.004 | inactive: 0 | inactive: -0.041 | inactive: 0.1 | inactive: 0.006 | inactive: 0.011 | inactive: 0.008 | inactive: 0.028 | inactive: -0.029
11 | PGS1 (UniProt Q32NB8) | inactive: 0.052 | inactive: 0.025 | inactive: 0.098 | inactive: 0.001 | inactive: -0.09 | inactive: 0.035 | inactive: 0.024 | inactive: -0.157 | inactive: -0.004 | inactive: -0.062
12 | PINX1 (UniProt Q96BK5) | inactive: 0.233 | inactive: -0.069 | inactive: 0.105 | inactive: 0.163 | inactive: -0.019 | inactive: 0.051 | inactive: 0.092 | inactive: 0.09 | inactive: 0.074 | inactive: 0.025
13 | PIGG (UniProt Q5H8A4) | inactive: -0.096 | inactive: 0.042 | inactive: 0.028 | inactive: -0.012 | inactive: -0.028 | inactive: -0.013 | inactive: 0.156 | inactive: -0.094 | inactive: 0.003 | inactive: 0.03
14 | PKP3 isoform 2 (UniProt Q9Y446) | inactive: -0.087 | inactive: 0.05 | inactive: -0.01 | inactive: 0.061 | inactive: -0.005 | inactive: 0.05 | inactive: 0.027 | inactive: -0.088 | inactive: -0.037 | inactive: 0.001
15 | PHPT1 (UniProt Q9NRX4) | inactive: -0.056 | inactive: -0.015 | inactive: 0.012 | inactive: -0.005 | inactive: 0.03 | inactive: 0.071 | inactive: 0.056 | inactive: -0.047 | inactive: 0.006 | inactive: -0.012
16 | PISD (UniProt Q9UG56) | inactive: -0.025 | inactive: -0.027 | inactive: 0.042 | inactive: -0.036 | inactive: -0.003 | inactive: -0.046 | inactive: 0.029 | inactive: -0.091 | inactive: 0.024 | inactive: 0.034
17 | PKM (UniProt P14618) | inactive: 0.019 | inactive: 0.002 | inactive: -0.025 | inactive: 0.032 | inactive: -0.02 | inactive: -0.04 | inactive: -0.082 | inactive: 0.029 | inactive: -0.018 | inactive: -0.048
18 | PITHD1 (UniProt Q9GZP4) | inactive: 0.039 | inactive: -0.023 | inactive: -0.043 | inactive: 0.1 | inactive: 0.01 | inactive: 0.002 | inactive: -0.063 | inactive: 0.064 | inactive: 0.001 | inactive: 0.022
19 | PIEZO1 (UniProt Q92508) | inactive: -0.001 | inactive: 0.008 | inactive: -0.014 | inactive: -0.001 | inactive: 0.022 | inactive: 0.011 | inactive: -0.053 | inactive: 0.036 | inactive: -0.022 | inactive: 0.024
20 | PKLR (UniProt F8W6W2) | inactive: 0.035 |  |  |  |  |  |  |  |  | 
21 | PIK3CA (UniProt P42336) | inactive: -0.021 | inactive: -0.01 | inactive: 0.008 | inactive: 0.044 | inactive: -0.004 | inactive: -0.032 | inactive: 0.027 | inactive: 0.008 | inactive: -0.074 | inactive: -0.014
22 | PIK3CB (UniProt P42338) | inactive: -0.079 | inactive: 0.001 | inactive: 0.011 | inactive: 0.314 | inactive: -0.025 | inactive: -0.07 | inactive: -0.02 | inactive: 0.427 | inactive: -0.03 | inactive: 0.158
23 | PJA2 (UniProt O43164) | inactive: 0.084 | inactive: 0.031 | inactive: -0.055 | inactive: 0.031 | inactive: -0.04 | inactive: -0.039 | inactive: -0.213 | inactive: 0.074 | inactive: -0.005 | inactive: 0.023
24 | PLCB2 (UniProt Q00722) | inactive: 0.023 | inactive: 0.017 | inactive: 0.142 | inactive: 0.02 | inactive: 0.008 | inactive: 0.063 | inactive: -0.003 | inactive: 0.02 | inactive: -0.09 | inactive: 0.037
25 | PHLDB1 (UniProt Q86UU1) | inactive: -0.071 | inactive: 0.162 | inactive: 0.01 | inactive: 0.033 | inactive: -0.044 | inactive: 0.001 | inactive: 0.095 | inactive: -0.014 | inactive: 0.005 | inactive: -0.049
26 | PLBD2 (UniProt Q8NHP8) | inactive: 0.023 | inactive: 0.011 | inactive: 0.013 | inactive: -0.099 | inactive: 0.022 | inactive: 0.013 | inactive: 0 | inactive: 0.076 | inactive: -0.025 | inactive: 0.024
27 | PIP4K2C (UniProt Q8TBX8) | inactive: 0.039 | inactive: -0.028 | inactive: -0.045 | active: 0.463 | inactive: 0.206 | inactive: 0.103 | inactive: -0.114 | inactive: 0.225 | inactive: -0.01 | inactive: -0.019
28 | PHKG2 (UniProt P15735) | inactive: -0.074 | inactive: -0.055 | inactive: 0.126 | inactive: 0.074 | inactive: 0.073 | inactive: -0.007 | inactive: -0.103 | inactive: 0.045 | inactive: 0.062 | inactive: -0.054
29 | PLCD1 isoform 2 (UniProt P51178) | inactive: -0.019 | inactive: 0.022 | inactive: 0.027 | inactive: -0.015 | inactive: -0.058 | inactive: 0.032 | inactive: 0.051 | inactive: -0.024 | inactive: 0.003 | inactive: 0.042
30 | PLD1 (UniProt Q13393) | inactive: 0.022 | inactive: -0.001 | inactive: 0.009 | inactive: -0.067 | inactive: -0.024 | inactive: -0.015 | inactive: -0.216 | inactive: 0.063 | inactive: 0.05 | inactive: 0.032

Complete entries as entered above. Values in the order: log2 fold change (vemurafenib) | log2 fold change [1] | log2 fold change (barasertib) | log2 fold change [2] | log2 fold change (volasertib) | log2 fold change [3] | log2 fold change [4] | log2 fold change [5] | log2 fold change (saracatinib) | log2 fold change (sotrastaurin)
PIGA (UniProt P37287) is listed as inactive: 0.073 | inactive: 0 | inactive: 0.011 | inactive: 0.084 | inactive: 0.109 | inactive: -0.081 | inactive: 0.113 | inactive: 0.02 | inactive: 0.04 | inactive: 0.007
PLCD1 isoform 2 (UniProt P51178) is listed as inactive: -0.019 | inactive: 0.022 | inactive: 0.027 | inactive: -0.015 | inactive: -0.058 | inactive: 0.032 | inactive: 0.051 | inactive: -0.024 | inactive: 0.003 | inactive: 0.042
